From PMC5313150
Results are given in words; binding and its absence hold for the method and conditions named. Binding seen in cells or lysates may run through a third protein. Some binding calls cover weakened binding; strength is not graded here. Tags and fused reporters may be left off the sequences shown.

T1: GFP-Dark (Drosophila) (UniProt Q7KLI1)
T1 sequence: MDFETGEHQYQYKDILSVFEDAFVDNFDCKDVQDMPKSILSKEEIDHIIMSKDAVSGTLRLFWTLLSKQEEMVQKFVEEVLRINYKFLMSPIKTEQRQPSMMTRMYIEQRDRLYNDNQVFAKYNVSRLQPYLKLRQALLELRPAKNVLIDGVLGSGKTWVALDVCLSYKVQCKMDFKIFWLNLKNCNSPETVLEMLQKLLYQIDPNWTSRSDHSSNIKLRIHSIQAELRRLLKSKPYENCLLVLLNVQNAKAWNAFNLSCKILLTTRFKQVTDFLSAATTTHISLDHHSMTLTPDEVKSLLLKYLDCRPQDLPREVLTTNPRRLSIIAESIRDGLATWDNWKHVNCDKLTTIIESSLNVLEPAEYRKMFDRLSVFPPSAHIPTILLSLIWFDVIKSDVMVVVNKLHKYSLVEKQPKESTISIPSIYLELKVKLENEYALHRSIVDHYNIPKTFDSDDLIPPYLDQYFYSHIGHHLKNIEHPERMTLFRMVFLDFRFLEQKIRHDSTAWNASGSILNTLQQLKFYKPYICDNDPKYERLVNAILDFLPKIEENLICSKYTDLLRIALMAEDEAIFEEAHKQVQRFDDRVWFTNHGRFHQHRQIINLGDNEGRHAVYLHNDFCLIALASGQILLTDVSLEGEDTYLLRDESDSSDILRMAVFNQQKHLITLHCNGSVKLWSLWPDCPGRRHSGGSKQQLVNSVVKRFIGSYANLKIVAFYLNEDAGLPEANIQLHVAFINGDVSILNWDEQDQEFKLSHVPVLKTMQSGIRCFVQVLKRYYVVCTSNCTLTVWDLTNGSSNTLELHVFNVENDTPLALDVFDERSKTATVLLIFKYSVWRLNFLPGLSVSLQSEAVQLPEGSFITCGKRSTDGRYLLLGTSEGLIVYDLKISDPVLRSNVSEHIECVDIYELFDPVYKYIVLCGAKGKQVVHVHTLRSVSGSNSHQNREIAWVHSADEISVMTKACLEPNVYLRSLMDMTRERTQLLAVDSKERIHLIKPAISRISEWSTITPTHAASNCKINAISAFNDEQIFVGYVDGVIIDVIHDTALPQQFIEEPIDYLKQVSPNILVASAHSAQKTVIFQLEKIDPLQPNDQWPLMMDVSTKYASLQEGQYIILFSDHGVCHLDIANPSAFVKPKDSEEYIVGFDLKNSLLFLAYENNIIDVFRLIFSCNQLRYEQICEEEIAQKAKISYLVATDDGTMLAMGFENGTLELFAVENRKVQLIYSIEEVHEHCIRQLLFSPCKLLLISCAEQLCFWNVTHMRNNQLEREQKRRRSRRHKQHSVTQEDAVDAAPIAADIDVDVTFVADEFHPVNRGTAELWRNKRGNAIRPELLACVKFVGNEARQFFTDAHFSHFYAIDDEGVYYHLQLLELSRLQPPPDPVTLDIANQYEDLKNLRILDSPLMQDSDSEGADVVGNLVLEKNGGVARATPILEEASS


Molecular target: T1, GFP-Dark (Drosophila)
Experiment: co-IP; GFP-Dark precipitated with GFP-Trap magnetic beads from 3rd instar larval extracts (da>GFP-Dark+Flag-Dronc, Gal80^ts, 24 h at 29°C); NP40 buffer (20 mM TrisHCl pH 8.0, 137 mM NaCl, 1% NP40, 2 mM EDTA), 4°C overnight; blot with anti-Flag

binding	Binder
binds	Flag-Dronc^wt (enzyme, UniProt Q9XYF4 1-450) MQPPELEIGMPKRHREHIRKNLNILVEWTNYERLAMECVQQGILTVQMLRNTQDLNGKPFNMDEKDVRVEQHRRLLLKITQRGPTAYNLLINALRNINCLDAAVLLESVDESDSRPPFISLNERRTSRKSADIVDTPSPEASEGPCVSKLRNEPLGALTPYVGVVDGPEVKKSKKIHGGDSAILGTYKMQSRFNRGVLLMVNIMDYPDQNRRRIGAEKDSKSLIHLFQELNFTIFPYGNVNQDQFFKLLTMVTSSSYVQNTECFVMVLMTHGNSVEGKEKVEFCDGSVVDMQKIKDHFQTAKCPYLVNKPKVLMFPFCRGDEYDLGHPKNQGNLMEPVYTAQEEKWPDTQTEGIPSPSTNVPSLADTLVCYANTPGYVTHRDLDTGSWYIQKFCQVMADHAHDTDLEDILKKTSEAVGNKRTKKGSMQTGAYDNLGFNKKLYFNPGFFNE
binds	Flag-Dronc^K78R (enzyme, UniProt Q9XYF4 1-450) MQPPELEIGMPKRHREHIRKNLNILVEWTNYERLAMECVQQGILTVQMLRNTQDLNGKPFNMDEKDVRVEQHRRLLLRITQRGPTAYNLLINALRNINCLDAAVLLESVDESDSRPPFISLNERRTSRKSADIVDTPSPEASEGPCVSKLRNEPLGALTPYVGVVDGPEVKKSKKIHGGDSAILGTYKMQSRFNRGVLLMVNIMDYPDQNRRRIGAEKDSKSLIHLFQELNFTIFPYGNVNQDQFFKLLTMVTSSSYVQNTECFVMVLMTHGNSVEGKEKVEFCDGSVVDMQKIKDHFQTAKCPYLVNKPKVLMFPFCRGDEYDLGHPKNQGNLMEPVYTAQEEKWPDTQTEGIPSPSTNVPSLADTLVCYANTPGYVTHRDLDTGSWYIQKFCQVMADHAHDTDLEDILKKTSEAVGNKRTKKGSMQTGAYDNLGFNKKLYFNPGFFNE
